Numbering of substitutions follows the chain as printed. These are yes or no findings as the source states them, for the method shown. A result given as binding can be weak or reduced; the word gives no strength. Each block holds one binder with its values, some of them ahead of it.
Key:
[1] = target: full-length cynomolgus monkey TIGIT on CHO-K1 cells (CHO-K1 cynomolgus monkey TIGIT) (cynomolgus monkey); test: FACS
[2] = target: full-length cynomolgus monkey TIGIT on CHO-K1 cells (CHO-K1 cynomolgus monkey TIGIT) (cynomolgus monkey); test: FACS, CHO-K1 cynomolgus monkey TIGIT cells
[3] = target: human PVRIG-his (AcroBiosystems, Cat NO. PVG-H52H4) (human) (UniProt Q6DKI7); test: competition ELISA on coated human PVRIG-his; blocked ligand human PVRL2-mFc
[4] = target: human PVRIG-his (AcroBiosystems, Cat NO. PVG-H52H4) (human) (UniProt Q6DKI7); test: BIAcore
[5] = target: human PVRIG-his (AcroBiosystems, Cat NO. PVG-H52H4) (human) (UniProt Q6DKI7); test: ELISA
[6] = target: human PVRIG-his (AcroBiosystems, Cat NO. PVG-H52H4) (human) (UniProt Q6DKI7); test: ELISA, coated human PVRIG-his

Sequences of proteins named here, by UniProt entry; tags and fusion partners are left off. A change or cut given only in a name is not applied to a line headed by its entry.
UniProt Q6DKI7: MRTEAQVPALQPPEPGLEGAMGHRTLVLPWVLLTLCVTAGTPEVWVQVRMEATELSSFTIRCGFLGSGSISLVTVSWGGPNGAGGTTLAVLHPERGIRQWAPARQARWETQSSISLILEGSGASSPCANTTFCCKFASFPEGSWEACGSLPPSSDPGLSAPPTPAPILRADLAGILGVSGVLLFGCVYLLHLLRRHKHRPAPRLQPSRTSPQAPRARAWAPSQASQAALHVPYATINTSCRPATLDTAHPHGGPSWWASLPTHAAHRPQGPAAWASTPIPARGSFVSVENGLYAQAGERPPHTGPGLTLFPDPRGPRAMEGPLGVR

B1: TIGIT-002-H4L3 (antibody, V domains shown)
VH: EVQLQESGPGLVKPSETLSLTCAVSGYSITSDSWNWIRQPPGKKLEYIGYISYSGNTYYNPSLKSRVTISRDTSKNQFSLKLSSVTAADTAVYYCARLDFSNYGGAVDYWGQGTTVTVSS
VL: DIVMTQSPDSLAVSLGERATINCKASQNVRTAVAWYQQKPGQSPKLMIYSASYRYTGVPDRFSGSGSGTDFTLTISSLQAEDVAVYYCQQYYTTPWTFGGGTKVEIK
binding [1]: binds
binding [2]: binds

B3: TIGIT-005-H2L1d (antibody, V domains shown)
VH: EVQLVQSGAEVKKPGASVKVSCKASGYAFTNYLIEWVRQAPGQRLEWMGVINPGSGGTNYKEKFKGRVTITADKSSSTAYMELSSLRSEDTAVYYCARGEYFFFDYWGQGTTVTVSS
VL: B1 VL with N28H, R30S, T31N, Q38H, M47L, Y91H, T93N, W96H
binding [1]: binds
binding [2]: binds

B4: PVRIG-A43 (VHH, not shown: a dimerising Fc or GST)
VHH: QVQLVESGGGLVQSGGSLRLSCAASGRTRSMYVMGWFRQAPGKEREFVGRIKWSGDTTYTSYADFVKGRFTLYGNQARNTVYLQMNSLKVEDTAVYYCAGRVVPLPSRQRDRYDYWGQGTQVTVSS
binding [3]: binds
binding [4]: binds
binding [5]: binds

B8: PVRIG-A15 (VHH, not shown: a dimerising Fc or GST)
VHH: QVQLVESGGGLVQAGGSLRLSCVASGRTFSANTMAWFRQAPGKEREFVAYTRWTDDNTDYASYADFVKGRFTAFRDNTRNTMYLQMNRLRPEDTAVYYCAAATTRGTYYSAGDYNSWGQGTQVTVSS
binding [3]: binds
binding [4]: binds
binding [5]: binds

B9: PVRIG-A113 (VHH, not shown: a dimerising Fc or GST)
VHH: QLQLVESGGGLVQSGGSLRLSCAASGRTRSMYVMGWFRQAPGKEREFVGRIKWSGDTTYTSYADFVKGRFTLYGNQARNTVYLQMNSLKPEDTAVYYCAALPSDYDYRAASYGVDYWGKGTLVTVSS
binding [3]: binds
binding [4]: binds
binding [5]: binds

B10: COM701-hIgG4 (antibody, V domains shown)
VH: QVQLVQSGAEVKKPGASVKVSCKASGYTFTDYNINWVRQAPGQGLEWMGYIYPYIGGSGYAQKFQGRVTMTRDTSTSTVYMELSSLRSEDTAVYYCAREDKTARNAMDYWGQGTLVTVSS
VL: DIQMTQSPSSLSASVGDRVTITCRVSENIYSNLAWYQQKPGKAPKLLIYEATNLAEGVPSRFSGSGSGTDFTLTISSLQPEDFATYYCQHFWGTPYTFGQGTKLEIK
binding [3]: binds
binding [6]: binds

B11: COM701-hIgG1 (antibody, V domains shown)
VH: B10 VH
VL: B10 VL
binding [6]: binds
binding [4]: binds

B13: PVRIG-A75 (VHH, not shown: a dimerising Fc or GST)
VHH: QLQLVESGGGLVQSGGSLRLSCAASGRTRSMYVMGWFRQAPGKEREFVGRIKWSGDTTYTSYADFVKGRFTLYGNQARNTVYLQMNSLKPEDTAVYSCAASKFPVSGVPEHYDYWGQGTQVTVSS
binding [3]: binds
binding [4]: binds
binding [5]: binds

B15: PVRIG-A117 (VHH, not shown: a dimerising Fc or GST)
VHH: EVQVVESGGGLVQAGGSLRLSCTASEHIYDLYIMGWYRQAPGKDRELVATITYTGSIYIADSVKDRFTISRGNAKNTVSLQMSGLKPEDTAVYYCNADPSGLGRKLYWGQGTQVTVSS
binding [3]: binds
binding [4]: binds
binding [5]: binds

B16: SRF813-hIgG1 (antibody, V domains shown)
VH: QVQLVQSGAEVKKPGSSVKVSCKASGGTFSSAAISWVRQAPGQGLEWMGNIIPIVGIANYAQKFQGRVTITADESTSTAYMELSSLRSEDTAVYYCARDTGRGYTRHFWFDPWGQGTLVTVSS
VL: DIQMTQSPSSLSASVGDRVTITCRASQSISSYLNWYQQKPGKAPKLLIYAASSLQSGVPSRFSGSGSGTDFTLTISSLQPEDFATYYCQQSDILYTFGGGTKVEIK
binding [3]: binds
binding [6]: binds
binding [4]: binds

The remaining lines, values ahead:

binding [1]: binds
B2: TIGIT-006-H5L3 (antibody, V domains shown)
VH: B1 VH with I29M, S33Y, N56R, L98G, F100Y, V107M, D108Y, Y109D
VL: DIVMTQSPDSLAVSLGERATINCRASQGVSTTIAWYQQKPGQSPKLLIYSASYRYTGVPRFSGSGSGTDFTLTISSLQAEDVAVYYCQQYYSSPFTFGGGTKVEIK

binding [1]: binds
B5: TIGIT-CHI-005 (antibody, V domains shown)
VH: QVQLQQSGAELVRPGTSVKVSCKASGYAFTNYLIEWVKQRPGQGLEWIGVINPGSGGTNYKEKFKGKATLTADKSSSTAYMQLSSLTSEDSAVYFCARGEYFFFDYWGQGTTLTVSS
VL: DIVMTQSHKFMSTSVGDRVSITCKASQHVSNGVAWYQHKPGQSPKLLIYSASYRYTGVPDRFTGTGSGTDFTFTISSVQAEDLAVYYCQQHYNTPHTFGGGTKLEIK

binding [1]: binds
B6: TIGIT-CHI-002 (antibody, V domains shown)
VH: EVQLQESGPGLAKPSQTLSLACSVTGYSITSDSWNWIRKFPGNKLEYMGYISYSGNTYYNPSLKSRISITRDTSKNQFYLQLNSVTTEDTATYYCARLDFSNYGGAVDYWGQGTSVTVSS
VL: DIVMTQSHTFMSTSVGDRVSITCKASQNVRTAVAWYQQKPGQSPKLMIYSASYRYTGVPDRFTGSGSGTDFTFTISSVQAEDLAVYYCQQYYTTPWTFGGGAKLEIQ

binding [1]: binds
B7: TIGIT-CHI-006 (antibody, V domains shown)
VH: B6 VH with L18P, A21T, I29M, S33Y, N56R, L98G, F100Y, V107M, D108Y, Y109D
VL: DIVMTQSHKFMSTSVGDRVSITCRASQGVSTTIAWYQQKPGQSPKLLIYSASYRYTGVPDRFTGSGSGTDFTFTISGVQAEDLAVYYCQQYYSSPFTFGGGTKLEIK

binding [1]: binds
B12: TIGIT-070-H1L1 (antibody, V domains shown)
VH: EVQLVQSGAEVKKPGASVKVSCKASGYTFTNYYMHWVRQAPGQRLEWMGRIDPDSGGSKYNEKFKSRVTITVDKSASTAYMELSSLRSEDTAVYYCAREGHYGFYSDYWGQGTTVTVSS
VL: DIQMTQSPSSLSASVGDRVTITCRVSENIYSYLAWYQQKPGKSPKLLIYNAKTLAEGVPSRFSGSGSGTDFTLTISSLQPEDFATYYCQHHYGNPLTFGPGTKVDIK

binding [1]: binds
B14: TIGIT-CHI-070 (antibody, V domains shown)
VH: QVQLQQPGTELVKPGASVKLSCRASGYTFTNYYMHWVKQRPGRGLEWIGRIDPDSGGSKYNEKFKSKATLTVDKLSSTAYMQLSSLTSEDSAVYYCAREGHYGFYSDYWGQGTTLTVSS
VL: DIQMTQSPASLSASVGETVTITCRVSENIYSYLAWYQQKQGKSPQLLVYNAKTLAEGVPSRFSGSGSGTQFSLKINSLQPEDFGNYYCQHHYGNPLTFGAGTKLDLK

Reference: patent publication US20240343803A1
